# Laboratory results as given in the supplement of paper PMC3334620.
# Over roughly 33,000 sequences, “E-score (-0.5 to 0.5)” has its median near -0.015; the highest 2% begin near 0.3. The list shows a part of the results.
# Target: T1, Abf1 (UniProt P14164)
# T1 sequence: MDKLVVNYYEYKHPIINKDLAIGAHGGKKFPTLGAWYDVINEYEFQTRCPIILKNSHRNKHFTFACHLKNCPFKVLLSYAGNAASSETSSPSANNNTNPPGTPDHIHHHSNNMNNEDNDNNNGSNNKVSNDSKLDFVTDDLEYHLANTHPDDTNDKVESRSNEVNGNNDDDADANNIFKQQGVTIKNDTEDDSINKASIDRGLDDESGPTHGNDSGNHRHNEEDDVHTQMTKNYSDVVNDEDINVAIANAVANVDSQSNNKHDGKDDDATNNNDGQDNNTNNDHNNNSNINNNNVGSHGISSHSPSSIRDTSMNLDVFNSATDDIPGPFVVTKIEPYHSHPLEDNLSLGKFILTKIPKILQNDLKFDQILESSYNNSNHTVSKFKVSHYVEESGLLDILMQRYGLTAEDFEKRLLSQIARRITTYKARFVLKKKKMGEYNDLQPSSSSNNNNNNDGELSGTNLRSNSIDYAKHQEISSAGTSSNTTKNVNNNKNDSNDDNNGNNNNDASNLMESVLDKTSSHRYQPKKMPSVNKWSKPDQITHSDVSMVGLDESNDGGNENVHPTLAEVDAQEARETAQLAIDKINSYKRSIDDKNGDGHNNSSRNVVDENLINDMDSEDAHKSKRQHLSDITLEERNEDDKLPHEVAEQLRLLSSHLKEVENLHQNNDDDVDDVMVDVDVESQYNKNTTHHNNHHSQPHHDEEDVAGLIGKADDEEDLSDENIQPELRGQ
# Assay: PBM E-score (8-mer binding enrichment) (E-score (-0.5 to 0.5)); higher = stronger / more preferred TF binding
# Conditions: protein concentration: 200 nM; construct: GST-full length
# Procedure: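 Universal 'all 10-mer' protein binding microarrays (Agilent AMADID 015681) probed with GST-tagged S. cerevisiae TFs (full-length or DBD) made by in vitro transcription/translation (PURExpress), about 100-200 nM. Bound TF was detected with fluorescent anti-GST. Each ungapped 8-mer (which stands for itself and its reverse complement) is scored by the PBM enrichment score (E-score), a modified Wilcoxon-Mann-Whitney statistic from -0.5 to +0.5, computed with the Universal PBM Analysis Suite. Scale: above 0.35 generally sequence-specific binding.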
row,Sequence,PBM E-score
1,AGCAGCTG,-0.14
2,CGACAGTC,-0.0503
3,AGTATAAG,0.0186
4,ATAAGATA,0.0332
5,CAGTGTGC,-0.2
6,AAGACCAC,-0.349
7,CTCATTGA,-0.0228
8,AACTCGAT,0.212
9,CAGAGTGA,0.178
10,ACACTCCG,-0.187
11,AGGATGGC,-0.11
12,CTTCCTTA,-0.173
13,CCCTGTGC,-0.273
14,GATGTTGA,0.0987
15,CAAGCTGA,-0.0145
16,CAGTTGCC,-0.153
17,ATTATGGA,0.0939
18,AAATGGGT,-0.0572
19,CAAATCTC,0.00619
20,CTGATCTC,0.0271
21,GCACAACC,-0.176
22,ACCCTACT,-0.231
23,AAGGGGCA,-0.275
24,GGGGTTTA,-0.162
25,TGCAGCAA,0.0825

row,Sequence,PBM E-score
1,AGTTTCGG,-0.0424
2,GAAACGCC,-0.0206
3,ATGCAATG,-0.127
4,ATCGCTGC,0.0687
5,GAGGCATC,-0.17
6,CCGGGGGA,-0.348
7,AGACAGGA,0.123
8,TAAAGCCA,0.004
9,CCAAGTCC,-0.278
10,TCATGTCA,0.332
11,AAGGCGCC,0.0722
12,CTTAAGAA,0.183
13,GAGCCTGC,-0.156
14,AAACGGAC,-0.043
15,CATTATAC,0.0096
16,CTCATTCA,0.0616
17,GCGTTGGA,-0.126
18,ATGAGCCC,-0.351
19,CCAGCCTC,-0.0473
20,ACGTCCTG,-0.307
21,CAGAATAG,0.018
22,GCCCGGAA,-0.183
23,CTGGGATC,-0.0263
24,TACTCCGA,0.00533
25,CCACCGCG,-0.126

row,Sequence,PBM E-score
1,TACGTCGA,0.149
2,ACAAGGCT,-0.0608
3,CTAACATC,0.138
4,CCAGTGAG,-0.251
5,CCTGTCCA,-0.187
6,AATCGTCC,0.168
7,AGTTGGTG,-0.0584
8,CCTCATAA,-0.0174
9,ATGGATTA,-0.162
10,ACATGGCT,-0.217
11,ATCATTGC,0.176
12,CCACCGGA,-0.115
13,ACAACCAC,0.0845
14,GCGGCGAC,0.0353
15,TGATACCA,0.184
16,CTTCGGAC,0.176
17,AGACAAGC,-0.0992
18,ATCGCCCA,-0.077
19,CTGACGTC,0.137
20,AAACGCTC,-0.215
21,CGTAGCAC,0.246
22,AATTGGGT,0.086
23,GAGAGATC,0.0419
24,TCGATGCA,-0.119
25,AAATCGAC,0.118

row,Sequence,PBM E-score
1,TCCGTAAA,0.145
2,GTAGAGCA,-0.132
3,ACACGACA,0.368
4,AGCCGGCG,-0.0683
5,CTTCTCAC,0.0852
6,CGACCCAG,0.169
7,ACAACGAT,0.0575
8,CAGGCCGA,-0.189
9,CCCTCGGA,0.00175
10,CCTCGCAC,0.016
11,TCTGACCA,0.119
12,ACTCTGGG,-0.0955
13,AGCGCTCG,-0.197
14,GATATCAA,0.207
15,GAACTGCA,0.0142
16,GACTCCAA,-0.0985
17,TGTGGCAA,-0.0589
18,CATGGGAG,-0.204
19,CAAGACTA,-0.0636
20,ACACTGAA,-0.00951
21,GCGACAAA,0.215
22,ATCTCAAA,0.106
23,CAGACTTA,-0.0885
24,CCTGACCA,0.0226
25,GCTACAGA,-0.126

# Quoted at random: 2 entries already listed
row,Sequence,PBM E-score
5,GAGGCATC,-0.17
12,CTTAAGAA,0.183

# The results go on:

row,Sequence,PBM E-score
1,CGCGGTAG,0.0192
2,TCATACCA,-0.0589
3,ACAGGATA,0.0537
4,AGATTGAA,-0.0889
5,TCTCCGAA,-0.155
6,AACATACC,0.0753
7,ATACCTCC,-0.0585
8,ACGCTCCA,-0.0712
9,ACCTCCCC,-0.06
10,CCCGCCCG,-0.163
11,GCGGTAAA,0.0513
12,ATTGTCTA,0.164
13,ATCTGATA,-0.0399
14,GCAATCGC,-0.0773
15,CTAATTGA,-0.112
16,CCACAATA,-0.0124
17,AATGGCTC,-0.118
18,CGTAGGCA,-0.00183
19,ATAACAAC,0.00739
20,ATATTAAC,0.21
21,GCTCGTTA,-0.00823
22,CCTAACTC,0.0272
23,CAAACGTC,0.0472
24,GCATACCC,-0.136
25,CTCTGCCA,-0.0346

row,Sequence,PBM E-score
1,CTCGGACA,-0.0517
2,AGCATTAC,0.0251
3,GAAGGTGA,0.176
4,ACTACTGA,-0.0327
5,GGGATGAA,-0.0107
6,AAAACTTC,0.0216
7,AGTGCTTC,-0.176
8,ACTGCCGG,-0.112
9,AAAGTATC,0.119
10,ATAAACCA,0.0453
11,ATCGCCTC,0.095
12,CTCGGCCC,-0.185
13,ACTCACAG,-0.124
14,CTCCGATC,-0.191
15,AGGAATAG,-0.118
16,AATCTCCG,-0.0449
17,TGCCTGAA,-0.0551
18,GAGGCATA,-0.0641
19,CATTTCAA,0.163
20,GCTGGAAA,-0.186
21,AAACGATC,0.286
22,CGGCCTCC,-0.155
23,GAATAGGC,-0.149
24,AGCTGACC,-0.25
25,CGCGAACG,-0.0125

# Single entries from the list.
# Under PBM E-score, CGCGAACG reads -0.0125
# Under PBM E-score, CATTTCAA reads 0.163
# Under PBM E-score, CTCCGATC reads -0.191
# Under PBM E-score, AATCTCCG reads -0.0449

# (continued)

row,Sequence,PBM E-score
1,AAGGCCGA,-0.0803
2,ACCTACGC,0.0281
3,AGACGTAG,0.0529
4,ATGGACGC,0.0698
5,AGTAACAT,0.229
6,GGGATCCC,-0.211
7,CAGTCTCA,-0.102
8,ATGCCAGC,-0.175
9,AGCATGAT,0.18
10,GATCCTCA,0.019
11,AGGGCACA,-0.0676
12,ACCTAAGA,-0.0175
13,CCGATTTA,-0.0471
14,AGGAATAA,-0.0671
15,ACAAATCT,0.179
16,ATACCATG,0.181
17,ACCCTGCC,-0.0587
18,GGCTCGCA,0.015
19,GATGCGAA,0.038
20,ATGTATCC,0.11
21,GCACAATA,-0.128
22,ATTGGAAG,-0.0691
